Some of these results come from one statement about several compounds together.
molecular target: T1, Bcl-b (Homo sapiens, UniProt Q9HD36); experiment: Bclb/Bim fluorescence polarization assay (FPA); assay type: binding; conditions: BIM BH3 peptide 5 nM, Bcl-b 40 nM, Ki calculated from FPA data
T1 construct: without their C-terminal transmembrane domain; GST; made in house
T1 sequence (Q9HD36 1-182 limits assumed): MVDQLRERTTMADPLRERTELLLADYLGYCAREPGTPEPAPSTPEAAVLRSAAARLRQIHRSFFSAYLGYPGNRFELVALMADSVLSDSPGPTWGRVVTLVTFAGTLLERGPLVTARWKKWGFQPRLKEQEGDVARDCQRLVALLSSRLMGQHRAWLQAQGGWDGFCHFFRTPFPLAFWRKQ

Ki, ≤ 10 µM:
O=C(c1ccc(CN(Cc2ccc(F)cc2)S(=O)(=O)c2cc(Cl)cc(Cl)c2O)cc1)N1CCCCC1 [Example 130]
CC(C)NC(=O)c1ccc(CN(Cc2ccc(F)cc2)S(=O)(=O)c2cc(Cl)cc(Cl)c2O)cc1 [Example 131, 4-((3,5-Dichloro-N-(4-fluorobenzyl)-2-hydroxyphenylsulfonamido)methyl)-N-isopropylbenzamide]
CC(C)CNC(=O)c1ccc(CN(Cc2ccc(F)cc2)S(=O)(=O)c2cc(Cl)cc(Cl)c2O)cc1 [Example 132, 4-((3,5-Dichloro-N-(4-fluorobenzyl)-2-hydroxyphenylsulfonamido)methyl)-N-isobutylbenzamide]
CCNC(=O)c1ccc(CN(Cc2ccc(F)cc2)S(=O)(=O)c2cc(Cl)cc(Cl)c2O)cc1 [Example 133, 4-((3,5-Dichloro-N-(4-fluorobenzyl)-2-hydroxyphenylsulfonamido)methyl)-N-ethylbenzamide]
O=C(NCCc1ccccc1)c1ccc(CN(Cc2ccc(F)cc2)S(=O)(=O)c2cc(Cl)cc(Cl)c2O)cc1 [Example 134, 4-((3,5-Dichloro-N-(4-fluorobenzyl)-2-hydroxyphenylsulfonamido)methyl)-N-phenethylbenzamide]
CC(C)CCNC(=O)c1ccc(CN(Cc2ccc(F)cc2)S(=O)(=O)c2cc(Cl)cc(Cl)c2O)cc1 [Example 135, 4-((3,5-Dichloro-N-(4-fluorobenzyl)-2-hydroxyphenylsulfonamido)methyl)-N-isopentylbenzamide]
O=C(NCCCc1ccccc1)c1ccc(CN(Cc2ccc(F)cc2)S(=O)(=O)c2cc(Cl)cc(Cl)c2O)cc1 [Example 136, 4-((3,5-Dichloro-N-(4-fluorobenzyl)-2-hydroxyphenylsulfonamido)methyl)-N-(3-phenylpropyl)benzamide]
CN(CCc1ccccc1)C(=O)c1ccc(CN(Cc2ccc(F)cc2)S(=O)(=O)c2cc(Cl)cc(Cl)c2O)cc1 [Example 137, 4-((3,5-Dichloro-N-(4-fluorobenzyl)-2-hydroxyphenylsulfonamido)methyl)-N-methyl-N-phenethylbenzamide]
CCCCNC(=O)c1ccc(CN(Cc2ccc(F)cc2)S(=O)(=O)c2cc(Cl)cc(Cl)c2O)cc1 [Example 138, N-Butyl-4-((3,5-dichloro-N-(4-fluorobenzyl)-2-hydroxyphenylsulfonamido)methyl)-benzamide]
O=C(c1ccc(CN(Cc2ccc(F)cc2)S(=O)(=O)c2cc(Cl)cc(Cl)c2O)cc1)N1CCN(C(c2ccccc2)c2ccccc2)CC1 [Example 139, N-(4-(4-Benzhydrylpiperazine-1-carbonyl)benzyl)-3,5-dichloro-N-(4-fluorobenzyl)-2-hydroxybenzenesulfonamide]
O=C(c1ccc(CN(Cc2ccc(F)cc2)S(=O)(=O)c2cc(Cl)cc(Cl)c2O)cc1)N1CCN(c2cnccn2)CC1 [Example 140, 3,5-Dichloro-N-(4-fluorobenzyl)-2-hydroxy-N-(4-(4-(pyrazin-2-yl)piperazine-1-carbonyl)benzyl)benzenesulfonamide]
O=C(NCCOc1ccccc1)c1ccc(CN(Cc2ccc(F)cc2)S(=O)(=O)c2cc(Cl)cc(Cl)c2O)cc1 [Example 141, 4-((3,5-Dichloro-N-(4-fluorobenzyl)-2-hydroxyphenylsulfonamido)methyl)-N-(2-phenoxyethyl)benzamide]
O=C(NCc1cccc(OC(F)(F)F)c1)c1ccc(CN(Cc2ccc(F)cc2)S(=O)(=O)c2cc(Cl)cc(Cl)c2O)cc1 [Example 142, 4-((3,5-Dichloro-N-(4-fluorobenzyl)-2-hydroxyphenylsulfonamido)methyl)-N-(3-(trifluoromethoxy)benzyl)benzamide]
O=C(N[C@H]1C[C@@H]1c1ccccc1)c1ccc(CN(Cc2ccc(F)cc2)S(=O)(=O)c2cc(Cl)cc(Cl)c2O)cc1 [Example 143, 4-((3,5-Dichloro-N-(4-fluorobenzyl)-2-hydroxyphenylsulfonamido)methyl)-N-((1S,2R)-2-phenylcyclopropyl)benzamide]
O=C(c1ccc(CN(Cc2ccc(F)cc2)S(=O)(=O)c2cc(Cl)cc(Cl)c2O)cc1)N1CCC(c2ccccc2)C1 (stereo not drawn) [Example 144, 3,5-Dichloro-N-(4-fluorobenzyl)-2-hydroxy-N-(4-(3-phenylpyrrolidine-1-carbonyl)benzyl)benzenesulfonamide]
O=C(c1ccc(CN(Cc2ccc(F)cc2)S(=O)(=O)c2cc(Cl)cc(Cl)c2O)cc1)N1CCN(Cc2ccccc2)CC1 [Example 145, N-(4-(4-Benzylpiperazine-1-carbonyl)benzyl)-3,5-dichloro-N-(4-fluorobenzyl)-2-hydroxybenzenesulfonamide]
CN(CCc1ccccn1)C(=O)c1ccc(CN(Cc2ccc(F)cc2)S(=O)(=O)c2cc(Cl)cc(Cl)c2O)cc1 [Example 146, 4-((3,5-Dichloro-N-(4-fluorobenzyl)-2-hydroxyphenylsulfonamido)methyl)-N-methyl-N-(2-(pyridin-2-yl)ethyl)benzamide]
NS(=O)(=O)c1ccc(CNC(=O)c2ccc(CN(Cc3ccc(F)cc3)S(=O)(=O)c3cc(Cl)cc(Cl)c3O)cc2)cc1 [Example 147, 4-((3,5-Dichloro-N-(4-fluorobenzyl)-2-hydroxyphenylsulfonamido)methyl)-N-(4-sulfamoylbenzyl)benzamide]
O=C(NCc1ccc(Oc2ccccc2)cc1)c1ccc(CN(Cc2ccc(F)cc2)S(=O)(=O)c2cc(Cl)cc(Cl)c2O)cc1 [Example 148, 4-((3,5-Dichloro-N-(4-fluorobenzyl)-2-hydroxyphenylsulfonamido)methyl)-N-(4-phenoxybenzyl)benzamide]
O=C(c1ccc(CN(Cc2ccc(F)cc2)S(=O)(=O)c2cc(Cl)cc(Cl)c2O)cc1)N1CCC(CCO)CC1 [Example 149, 3,5-Dichloro-N-(4-fluorobenzyl)-2-hydroxy-N-(4-(4-(2-hydroxyethyl)piperidine-1-carbonyl)benzyl)benzenesulfonamide]
CN(C)c1ccc(CNC(=O)c2ccc(CN(Cc3ccc(F)cc3)S(=O)(=O)c3cc(Cl)cc(Cl)c3O)cc2)cc1 [Example 150, 4-((3,5-Dichloro-N-(4-fluorobenzyl)-2-hydroxyphenylsulfonamido)methyl)-N-(4-(dimethylamino)benzyl)benzamide]
O=C(NC1CCCc2ccccc21)c1ccc(CN(Cc2ccc(F)cc2)S(=O)(=O)c2cc(Cl)cc(Cl)c2O)cc1 (stereo not drawn) [Example 151, 4-((3,5-Dichloro-N-(4-fluorobenzyl)-2-hydroxyphenylsulfonamido)methyl)-N-(1,2,3,4-tetrahydronaphthalen-1-yl)benzamide]
O=C(NCc1ccc(OC(F)(F)F)cc1)c1ccc(CN(Cc2ccc(F)cc2)S(=O)(=O)c2cc(Cl)cc(Cl)c2O)cc1 [Example 152, 4-((3,5-Dichloro-N-(4-fluorobenzyl)-2-hydroxyphenylsulfonamido)methyl)-N-(4-(trifluorometboxy)benzyl)benzamide]
O=C(NCc1csc(-c2ccccc2)n1)c1ccc(CN(Cc2ccc(F)cc2)S(=O)(=O)c2cc(Cl)cc(Cl)c2O)cc1 [Example 153, 4-((3,5-Dichloro-N-(4-fluorobenzyl)-2-hydroxyphenylsulfonamido)methyl)-N-((2-phenylthiazol-4-yl)methyl)benzamide]
